Assay results: PMC12509985, “Phosphoglycerate dehydrogenase interacts with and inhibits the protein kinase TAK1 to mitigate septic shock” (The Journal of Biological Chemistry, 2025)
Results are given in words; binding and its absence hold for the method and conditions named. In cells and extracts the contact can be indirect. Some binding calls cover weakened binding; strength is not graded here. Tags and fused reporters may be left off the sequences shown.

The chains behind the UniProt entries cited, without tags or fusion partners. Residues count along the entry.
UniProt Q9QUK6, residues 26-835: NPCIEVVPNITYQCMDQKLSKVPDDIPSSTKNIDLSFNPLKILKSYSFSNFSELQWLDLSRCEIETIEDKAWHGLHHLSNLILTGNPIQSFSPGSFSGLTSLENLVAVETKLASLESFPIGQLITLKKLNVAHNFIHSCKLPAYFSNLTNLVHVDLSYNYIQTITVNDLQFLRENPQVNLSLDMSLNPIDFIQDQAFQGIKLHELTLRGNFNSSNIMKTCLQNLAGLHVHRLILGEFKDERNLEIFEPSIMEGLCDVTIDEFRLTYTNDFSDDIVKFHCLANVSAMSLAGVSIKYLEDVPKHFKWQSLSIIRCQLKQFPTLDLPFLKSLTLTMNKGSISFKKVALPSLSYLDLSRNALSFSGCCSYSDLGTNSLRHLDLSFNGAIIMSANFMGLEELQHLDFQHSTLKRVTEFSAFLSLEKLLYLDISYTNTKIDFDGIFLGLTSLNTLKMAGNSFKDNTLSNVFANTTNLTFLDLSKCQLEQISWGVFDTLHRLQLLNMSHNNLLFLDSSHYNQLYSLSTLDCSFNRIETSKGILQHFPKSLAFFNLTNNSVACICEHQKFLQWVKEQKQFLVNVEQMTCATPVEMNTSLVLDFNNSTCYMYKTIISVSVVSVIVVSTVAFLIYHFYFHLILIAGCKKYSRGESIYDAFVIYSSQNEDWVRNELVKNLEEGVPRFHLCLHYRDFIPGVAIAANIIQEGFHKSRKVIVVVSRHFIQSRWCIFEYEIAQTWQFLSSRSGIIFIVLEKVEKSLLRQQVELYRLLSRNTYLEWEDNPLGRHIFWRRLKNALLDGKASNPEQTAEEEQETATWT
UniProt P22366: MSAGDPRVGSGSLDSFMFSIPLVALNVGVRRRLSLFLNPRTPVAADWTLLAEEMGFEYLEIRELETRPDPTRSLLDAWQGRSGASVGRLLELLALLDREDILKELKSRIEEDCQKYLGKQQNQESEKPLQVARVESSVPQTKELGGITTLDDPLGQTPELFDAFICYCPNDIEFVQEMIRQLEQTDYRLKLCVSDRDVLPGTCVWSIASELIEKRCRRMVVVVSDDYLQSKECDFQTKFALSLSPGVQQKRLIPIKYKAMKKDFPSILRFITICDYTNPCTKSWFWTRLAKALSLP
UniProt Q62406: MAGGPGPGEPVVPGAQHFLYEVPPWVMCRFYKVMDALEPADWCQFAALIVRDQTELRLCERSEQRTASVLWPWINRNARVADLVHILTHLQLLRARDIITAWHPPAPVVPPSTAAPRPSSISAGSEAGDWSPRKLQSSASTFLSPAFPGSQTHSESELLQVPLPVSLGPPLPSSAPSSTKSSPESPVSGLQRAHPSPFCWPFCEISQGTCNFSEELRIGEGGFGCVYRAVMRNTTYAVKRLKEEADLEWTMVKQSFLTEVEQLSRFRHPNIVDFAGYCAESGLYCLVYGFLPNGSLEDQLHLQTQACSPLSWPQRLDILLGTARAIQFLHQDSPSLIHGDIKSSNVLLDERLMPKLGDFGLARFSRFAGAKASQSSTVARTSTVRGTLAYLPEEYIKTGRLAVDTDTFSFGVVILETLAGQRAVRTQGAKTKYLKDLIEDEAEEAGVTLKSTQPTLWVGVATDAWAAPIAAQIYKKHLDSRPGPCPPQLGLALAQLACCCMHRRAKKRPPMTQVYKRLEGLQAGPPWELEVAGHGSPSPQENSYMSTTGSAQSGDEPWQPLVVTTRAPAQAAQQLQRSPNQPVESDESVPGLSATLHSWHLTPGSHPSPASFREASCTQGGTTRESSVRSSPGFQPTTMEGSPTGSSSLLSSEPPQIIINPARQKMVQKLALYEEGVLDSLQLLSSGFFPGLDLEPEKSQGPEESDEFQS
UniProt Q8BJQ4: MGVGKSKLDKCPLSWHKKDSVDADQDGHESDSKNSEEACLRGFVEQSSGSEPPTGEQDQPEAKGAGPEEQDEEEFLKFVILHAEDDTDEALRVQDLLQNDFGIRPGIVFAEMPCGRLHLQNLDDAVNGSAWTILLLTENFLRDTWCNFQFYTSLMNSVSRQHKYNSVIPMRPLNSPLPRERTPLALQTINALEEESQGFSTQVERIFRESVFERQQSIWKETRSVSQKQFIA

B1: TAK1 (transforming growth factor-β–activated kinase 1), endogenous in RAW264.7 cells (enzyme, UniProt Q62073 1-579)
chain: MSTASAASSSSSSSASEMIEAPSQVLNFEEIDYKEIEVEEVVGRGAFGVVCKAKWRAKDVAIKQIESESERKAFIVELRQLSRVNHPNIVKLYGACLNPVCLVMEYAEGGSLYNVLHGAEPLPYYTAAHAMSWCLQCSQGVAYLHSMQPKALIHRDLKPPNLLLVAGGTVLKICDFGTACDIQTHMTNNKGSAAWMAPEVFEGSNYSEKCDVFSWGIILWEVITRRKPFDEIGGPAFRIMWAVHNGTRPPLIKNLPKPIESLMTRCWSKDPSQRPSMEEIVKIMTHLMRYFPGADEPLQYPCQYSDEGQSNSATSTGSFMDIASTNTSNKSDTNMEQVPATNDTIKRLESKLLKNQAKQQSESGRLSLGASRGSSVESLPPTSEGKRMSADMSEIEARIVATAGNGQPRRRSIQDLTVTGTEPGQVSSRSSSPSVRMITTSGPTSEKPARSHPWTPDDSTDTNGSDNSIPMAYLTLDHQLQPLAPCPNSKESMAVFEQHCKMAQEYMKVQTEIALLLQRKQELVAELDQDEKDQQNTSRLVQEHKKLLDENKSLSTYYQQCKKQLEVIRSQQQKRQGTS
B2: IRF3 in RAW264.7 cell extracts (protein, UniProt P70671 1-419)
chain: METPKPRILPWLVSQLDLGQLEGVAWLDESRTRFRIPWKHGLRQDAQMADFGIFQAWAEASGAYTPGKDKPDVSTWKRNFRSALNRKEVLRLAADNSKDPYDPHKVYEFVTPGARDFVHLGASPDTNGKSSLPHSQENLPKLFDGLILGPLKDEGSSDLAIVSDPSQQLPSPNVNNFLNPAPQENPLKQLLAEEQWEFEVTAFYRGRQVFQQTLFCPGGLRLVGSTADMTLPWQPVTLPDPEGFLTDKLVKEYVGQVLKGLGNGLALWQAGQCLWAQRLGHSHAFWALGEELLPDSGRGPDGEVHKDKDGAVFDLRPFVADLIAFMEGSGHSPRYTLWFCMGEMWPQDQPWVKRLVMVKVVPTCLKELLEMAREGGASSLKTVDLHISNSQPISLTSDQYKAYLQDLVEDMDFQATGNI
B3: IRAK4 in RAW264.7 cell extracts (enzyme, UniProt Q8R4K2 1-459)
chain: MNKPLTPSTYIRNLNVGILRKLSDFIDPQEGWKKLAVAIKKPSGDDRYNQFHIRRFEALLQTGKSPTCELLFDWGTTNCTVGDLVDLLVQIELFAPATLLLPDAVPQTVKSLPPREAATVAQTHGPCQEKDRTSVMPMPKLEHSCEPPDSSSPDNRSVESSDTRFHSFSFHELKSITNNFDEQPASAGGNRMGEGGFGVVYKGCVNNTIVAVKKLGAMVEISTEELKQQFDQEIKVMATCQHENLVELLGFSSDSDNLCLVYAYMPNGSLLDRLSCLDGTPPLSWHTRCKVAQGTANGIRFLHENHHIHRDIKSANILLDKDFTAKISDFGLARASARLAQTVMTSRIVGTTAYMAPEALRGEITPKSDIYSFGVVLLELITGLAAVDENREPQLLLDIKEEIEDEEKTIEDYTDEKMSDADPASVEAMYSAASQCLHEKKNRRPDIAKVQQLLQEMSA
B4: TRAF6 in RAW264.7 cell extracts (enzyme, UniProt P70196 1-530)
chain: MSLLNCENSCGSSQSSSDCCAAMAASCSAAVKDDSVSGSASTGNLSSSFMEEIQGYDVEFDPPLESKYECPICLMALREAVQTPCGHRFCKACIIKSIRDAGHKCPVDNEILLENQLFPDNFAKREILSLTVKCPNKGCLQKMELRHLEDHQVHCEFALVNCPQCQRPFQKCQVNTHIIEDCPRRQVSCVNCAVSMAYEEKEIHDQSCPLANIICEYCGTILIREQMPNHYDLDCPTAPIPCTFSVFGCHEKMQRNHLARHLQENTQLHMRLLAQAVHNVNLALRPCDAASPSRGCRPEDPNYEETIKQLESRLVRQDHQIRELTAKMETQSMYVGELKRTIRTLEDKVAEMEAQQCNGIYIWKIGNFGMHLKSQEEERPVVIHSPGFYTGRPGYKLCMRLHLQLPTAQRCANYISLFVHTMQGEYDSHLPWPFQGTIRLTILDQSEALIRQNHEEVMDAKPELLAFQRPTIPRNPKGFGYVTFMHLEALRQGTFIKDDTLLVRCEVSTRFDMGGLRKEGFQPRSTDAGV
B5: IKKβ in RAW264.7 cell extracts (enzyme, UniProt O88351 1-757)
chain: MSWSPSLPTQTCGAWEMKERLGTGGFGNVIRWHNQATGEQIAIKQCRQELSPKNRNRWCLEIQIMRRLNHPNVVAARDVPEGMQNLAPNDLPLLAMEYCQGGDLRRYLNQFENCCGLREGAVLTLLSDIASALRYLHENRIIHRDLKPENIVLQQGEKRLIHKIIDLGYAKELDQGSLCTSFVGTLQYLAPELLEQQKYTVTVDYWSFGTLAFECITGFRPFLPNWQPVQWHSKVRQKSEVDIVVSEDLNGAVKFSSSLPFPNNLNSVLAERLEKWLQLMLMWHPRQRGTDPQYGPNGCFRALDDILNLKLVHVLNMVTGTVHTYPVTEDESLQSLKTRIQENTGILETDQELLQKAGLVLLPDKPATQCISDSKTNEGLTLDMDLVFLLDNSKINYETQITPRPPPESVSCILQEPKRNLSFFQLRKVWGQVWHSIQTLKEDCNRLQQGQRAAMMSLLRNNSCLSKMKNAMASTAQQLKAKLDFFKTSIQIDLEKYKEQTEFGITSDKLLLAWREMEQAVEQCGRENDVKHLVERMMALQTDIVDLQRSPMGRKQGGTLDDLEEQARELYRKLREKPRDQRTEGDSQEMVRLLLQAIQSFEKKVRVIYTQLSKTVVCKQKALELLPKVEEVVSLMNEDERTVVRLQEKRQKELWNLLKIACSKVRGPVSGSPDSMNVSRLSHPGQLMSQPSSACDSLPESDKKSEELVAEAHALCSRLESALQDTVKEQDRSFTTLDWSWLQMEDEERCSLEQACD
B6: TRIF in RAW264.7 cell extracts (protein, UniProt Q80UF7 1-732)
chain: MDNPGPSLRGAFGILGALERDRLTHLKHKLGSLCSGSQESKLLHAMVLLALGQDTEARVSLESLKMNTVAQLVAHQWADMETTEGPEEPPDLSWTVARLYHLLAEENLCPASTRDMAYQVALRDFASQGDHQLGQLQNEAWDRCSSDIKGDPSGFQPLHSHQGSLQPPSASPAVTRSQPRPIDTPDWSWGHTLHSTNSTASLASHLEISQSPTLAFLSSHHGTHGPSKLCNTPLDTQEPQLVPEGCQEPEEISWPPSVETSVSLGLPHEISVPEVSPEEASPILPDALAAPDTSVHCPIECTELSTNSRSPLTSTTESVGKQWPITSQRSPQVPVGDDSLQNTTSSSPPAQPPSLQASPKLPPSPLSSASSPSSYPAPPTSTSPVLDHSETSDQKFYNFVVIHARADEQVALRIREKLETLGVPDGATFCEEFQVPGRGELHCLQDAIDHSGFTILLLTASFDCSLSLHQINHALMNSLTQSGRQDCVIPLLPLECSQAQLSPDTTRLLHSIVWLDEHSPIFARKVANTFKTQKLQAQRVRWKKAQEARTLKEQSIQLEAERQNVAAISAAYTAYVHSYRAWQAEMNKLGVAFGKNLSLGTPTPSWPGCPQPIPSHPQGGTPVFPYSPQPPSFPQPPCFPQPPSFPQPPSFPLPPVSSPQSQSFPSASSPAPQTPGPQPLIIHHAQMVQLGVNNHMWGHTGAQSSDDKTECSENPCMGPLTDQGEPLLETPE

Biological target: T1, PHGDH-Flag (phosphoglycerate dehydrogenase, Flag-tagged), overexpressed in RAW264.7 cells (UniProt Q61753)
T1 sequence: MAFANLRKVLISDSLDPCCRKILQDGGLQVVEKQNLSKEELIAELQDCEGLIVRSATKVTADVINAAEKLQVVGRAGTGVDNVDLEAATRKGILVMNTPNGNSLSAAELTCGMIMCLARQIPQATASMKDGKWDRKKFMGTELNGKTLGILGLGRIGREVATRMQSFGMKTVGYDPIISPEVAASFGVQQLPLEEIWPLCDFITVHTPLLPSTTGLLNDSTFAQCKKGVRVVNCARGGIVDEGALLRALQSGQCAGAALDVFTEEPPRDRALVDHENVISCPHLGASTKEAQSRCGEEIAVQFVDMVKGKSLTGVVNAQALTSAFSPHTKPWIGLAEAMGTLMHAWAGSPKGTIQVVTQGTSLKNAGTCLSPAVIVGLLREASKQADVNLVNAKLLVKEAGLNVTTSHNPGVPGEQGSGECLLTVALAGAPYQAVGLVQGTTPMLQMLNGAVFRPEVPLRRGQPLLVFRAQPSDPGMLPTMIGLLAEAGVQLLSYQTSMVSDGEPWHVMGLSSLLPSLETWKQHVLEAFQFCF
Assay: co-IP; PHGDH-Flag precipitated with anti-Flag beads from RAW264.7 cell extracts with or without LPS stimulation; native lysis buffer; immunoblot

binding, no binding:
TLR4 (Toll-like receptor 4) in RAW264.7 cell extracts (from UniProt Q9QUK6 26-835)
MyD88 in RAW264.7 cell extracts (from UniProt P22366 1-296)
IRAK1 in RAW264.7 cell extracts (from UniProt Q62406 1-710) (enzyme)
TRAM in RAW264.7 cell extracts (from UniProt Q8BJQ4 1-232)
B2
B3
B4
B5
B6

binding, binds:
B1
